# In the supplement of paper PMC5355238:
# Counter-ions that a name gives are not always drawn. The list shows a part of the results. Most entries show no effect beyond the scatter of the controls.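 Reh is a human leukemia cell line; the read-out is the median γH2AX antibody signal in S-phase cells by flow cytometry, with the score counting standard deviations from the median difference of each paired set of plates. Scores above 2.5 were called candidate hits, while scores below -2 mark compounds that lowered the MK1775-induced damage.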
# Tested on: Reh
# Test: Z' of S-phase gammaH2AX difference (drug + MK1775 minus drug alone) (Z-score); higher = stronger synergistic S-phase DNA damage with MK1775
# Conditions: MK1775 concentration 400 nM; first compound 10 µM; 4 h
row,SMILES,Z' of S-phase gammaH2AX difference (Z-score)
1,C[N+](C)(C)CCCCCNCC12CC3CC(CC(C3)C1)C2 + C=CCn1c(=O)c2cnc(Nc3ccc(N4CCN(C)CC4)cc3)nc2n1-c1cccc(C(C)(C)O)n1 [MK1775],inactive: 1.58
2,CO[C@@]1(NC(=O)CSCC#N)C(=O)N2C(C(=O)O)=C(CSc3nnnn3C)CS[C@@H]21 [Cefmetazole sodium] + C=CCn1c(=O)c2cnc(Nc3ccc(N4CCN(C)CC4)cc3)nc2n1-c1cccc(C(C)(C)O)n1 [MK1775],inactive: 1.1
3,COc1ccc2[nH]c(I)c(CCNC(C)=O)c2c1 [2-Iodomelatonin] + C=CCn1c(=O)c2cnc(Nc3ccc(N4CCN(C)CC4)cc3)nc2n1-c1cccc(C(C)(C)O)n1 [MK1775],inactive: 0.284
4,CCOC(=O)C(C)(C)Oc1ccc(Cl)cc1 [Clofibrate] + C=CCn1c(=O)c2cnc(Nc3ccc(N4CCN(C)CC4)cc3)nc2n1-c1cccc(C(C)(C)O)n1 [MK1775],inactive: 0.301
5,"c1cnc2c(c1)ccc1cccnc12 [1,10-Phenanthroline monohydrate] + C=CCn1c(=O)c2cnc(Nc3ccc(N4CCN(C)CC4)cc3)nc2n1-c1cccc(C(C)(C)O)n1 [MK1775]",inactive: -7.3
6,CC(C)NC[C@H](O)COc1ccc(CC(N)=O)cc1 [S(-)-Atenolol] + C=CCn1c(=O)c2cnc(Nc3ccc(N4CCN(C)CC4)cc3)nc2n1-c1cccc(C(C)(C)O)n1 [MK1775],inactive: -0.0501
7,CCC(NC(C)C)C(O)c1ccc(O)c(O)c1 (stereo unspecified) [Isotharine mesylate] + C=CCn1c(=O)c2cnc(Nc3ccc(N4CCN(C)CC4)cc3)nc2n1-c1cccc(C(C)(C)O)n1 [MK1775],inactive: 0.377
8,C[C@H](NC(=O)Cc1cc(F)cc(F)c1)C(=O)N[C@H](C(=O)OC(C)(C)C)c1ccccc1 + C=CCn1c(=O)c2cnc(Nc3ccc(N4CCN(C)CC4)cc3)nc2n1-c1cccc(C(C)(C)O)n1 [MK1775],inactive: -0.0333
9,CN1CCc2cccc3c2[C@H]1Cc1ccc(O)c(O)c1-3 [Apomorphine hydrochloride hemihydrate] + C=CCn1c(=O)c2cnc(Nc3ccc(N4CCN(C)CC4)cc3)nc2n1-c1cccc(C(C)(C)O)n1 [MK1775],inactive: 0.15
10,COCC[n+]1c2c(n(Cc3cnccn3)c1C)C(=O)c1ccccc1C2=O + C=CCn1c(=O)c2cnc(Nc3ccc(N4CCN(C)CC4)cc3)nc2n1-c1cccc(C(C)(C)O)n1 [MK1775],inactive: -1.25
11,Nc1ncnc2c1c(-c1ccc(Oc3ccccc3)cc1)cn2C1CCCC1 + C=CCn1c(=O)c2cnc(Nc3ccc(N4CCN(C)CC4)cc3)nc2n1-c1cccc(C(C)(C)O)n1 [MK1775],inactive: -0.527

# A different layout for some results above:
row | SMILES | Z' of S-phase gammaH2AX difference (Z-score)
9 | CN1CCc2cccc3c2[C@H]1Cc1ccc(O)c(O)c1-3 [Apomorphine hydrochloride hemihydrate] + C=CCn1c(=O)c2cnc(Nc3ccc(N4CCN(C)CC4)cc3)nc2n1-c1cccc(C(C)(C)O)n1 [MK1775] | inactive: 0.15
10 | COCC[n+]1c2c(n(Cc3cnccn3)c1C)C(=O)c1ccccc1C2=O + C=CCn1c(=O)c2cnc(Nc3ccc(N4CCN(C)CC4)cc3)nc2n1-c1cccc(C(C)(C)O)n1 [MK1775] | inactive: -1.25
